Assay results from PubChem BioAssay AID1117359 (Southern Research Institute, 2015).
About 460 (31%) of roughly 1,500 compounds were called active.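 Rule for the calls: active = viability at or below 80% at any tested concentration, marking the compound as toxic; inactive = the rest.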 This is a selection; strong and weak results do not stand in their true shares. Measured potencies and affinities stand elsewhere.

Test: THP-1 cell cytotoxicity, dose response, cytotoxicity control for Vif-APOBEC3G degradation inhibitor project, THP-1 cells (AID 1117359)
Conditions: THP-1 viability, CellTiter-Glo luminescence, 72 h; at 40 µM (top of the series)

Compound	viability
O=C(CSc1ncnc2ccccc12)Nc1cccc(S(=O)(=O)N2CCOCC2)c1	inactive: 98.2%
CC(=O)c1ccc(-c2nnc(CCC(=O)N(C)Cc3c(C)nc4ccccn34)o2)s1	inactive: 104%
CC(C)OCCCNC(=O)c1cccs1	inactive: 110%
CC(=O)c1ccc(N2CCN(C(=O)c3ccc4c(c3)OCO4)CC2)cc1	inactive: 86.4%
O=C1CC(SC(=S)C2CCCC2=O)C(=O)N1 (stereo unspecified)	inactive: 102%
CC(=O)c1ccc(NC(=O)c2ccc3nc(-c4ccco4)c(-c4ccco4)nc3c2)cc1	inactive: 100%
CN(C)C(=O)c1nc2ccc(Cl)cn2c1CN1CCCC(OCc2ccccc2)C1 (stereo unspecified)	inactive: 81.6%
CC(C)(C)NC(=O)CSc1nnc(-c2ccccn2)n1Cc1ccccc1	inactive: 98.6%
CC(=O)Nc1nnc(SCC(=O)N2CCCc3ccccc32)s1	inactive: 106%
Cc1c(C(=O)N2CCCCC2)nnn1-c1nonc1N	inactive: 93.2%
CC(Cc1c[nH]c2ccccc12)C(=O)NCc1ccco1 (stereo unspecified)	inactive: 93.4%
CCOc1ccc(NC(=O)CCS(=O)(=O)c2ccc(Br)cc2)cc1	inactive: 98%
CCOC(=O)c1c(N)sc(=S)c2c1CCC2	inactive: 80.8%
CCOc1ccc(NC(=O)c2ccccc2NS(C)(=O)=O)cc1	inactive: 83.8%
O=C1NC(=Nc2ccc(F)cc2)SC1Cc1ccc(F)cc1 (stereo unspecified)	inactive: 91.6%
O=C(O)C1Nc2c(Cl)cc(Cl)c(Cl)c2C2C=CCC12 (stereo unspecified)	inactive: 95.9%
O=C(CN1C(=O)c2ccccc2C1=O)NCC(=O)OCC(=O)c1cccc([N+](=O)[O-])c1	inactive: 91.2%
CC(=O)c1ccc(N2C(=NC(=O)C3CCCO3)SC3CS(=O)(=O)CC32)cc1 (stereo unspecified)	inactive: 102%
CC(=O)Nc1ccc(NC(=O)C(C)OC(=O)CC23CC4CC(CC(Br)(C4)C2)C3)cc1 (stereo unspecified)	inactive: 94.2%
COc1ccc(C)cc1NC(=O)COC(=O)CCC(=O)c1cccs1	inactive: 106%
Oc1c(CN2CCOCC2)cc(CN2CCOCC2)c(O)c1O	inactive: 94%

16 entries already listed, sorted by molecular weight, low to high:
Compound	viability
CC(C)OCCCNC(=O)c1cccs1	inactive: 110%
CCOC(=O)c1c(N)sc(=S)c2c1CCC2	inactive: 80.8%
O=C1CC(SC(=S)C2CCCC2=O)C(=O)N1 (stereo unspecified)	inactive: 102%
Cc1c(C(=O)N2CCCCC2)nnn1-c1nonc1N	inactive: 93.2%
O=C1NC(=Nc2ccc(F)cc2)SC1Cc1ccc(F)cc1 (stereo unspecified)	inactive: 91.6%
Oc1c(CN2CCOCC2)cc(CN2CCOCC2)c(O)c1O	inactive: 94%
CCOc1ccc(NC(=O)c2ccccc2NS(C)(=O)=O)cc1	inactive: 83.8%
CC(=O)Nc1nnc(SCC(=O)N2CCCc3ccccc32)s1	inactive: 106%
CC(=O)c1ccc(N2CCN(C(=O)c3ccc4c(c3)OCO4)CC2)cc1	inactive: 86.4%
CC(C)(C)NC(=O)CSc1nnc(-c2ccccn2)n1Cc1ccccc1	inactive: 98.6%
CC(=O)c1ccc(N2C(=NC(=O)C3CCCO3)SC3CS(=O)(=O)CC32)cc1 (stereo unspecified)	inactive: 102%
CCOc1ccc(NC(=O)CCS(=O)(=O)c2ccc(Br)cc2)cc1	inactive: 98%
CC(=O)c1ccc(NC(=O)c2ccc3nc(-c4ccco4)c(-c4ccco4)nc3c2)cc1	inactive: 100%
O=C(CN1C(=O)c2ccccc2C1=O)NCC(=O)OCC(=O)c1cccc([N+](=O)[O-])c1	inactive: 91.2%
O=C(CSc1ncnc2ccccc12)Nc1cccc(S(=O)(=O)N2CCOCC2)c1	inactive: 98.2%
CC(=O)Nc1ccc(NC(=O)C(C)OC(=O)CC23CC4CC(CC(Br)(C4)C2)C3)cc1 (stereo unspecified)	inactive: 94.2%

Continuation.

Compound	viability
Cc1cc(-c2csc(NC(=O)c3ccc(C#N)cc3)n2)c(C)n1Cc1ccco1	inactive: 106%
Cc1c(Br)c(O)c(Br)c2sc(=O)oc12	inactive: 101%
Cc1ccc(NC(=O)CN2C(=O)N/C(=C/c3ccco3)C2=O)cc1	inactive: 106%
CCCCn1c(N)c(N(CCOC)C(=O)c2cc(-c3ccco3)nc3ccccc23)c(=O)[nH]c1=O	inactive: 101%
CC1OC(OCC2OC(Oc3c(-c4ccc(O)cc4)oc4cc(O)cc(O)c4c3=O)C(O)C(O)C2O)C(O)C(O)C1O (stereo unspecified)	inactive: 104%
Clc1ccccc1CSc1nnc(-c2ccco2)c(-c2ccco2)n1	inactive: 94.3%
COc1ccc(NC(=O)c2ccc(S(=O)(=O)N3CCOCC3)o2)cc1	inactive: 115%
O=C(Nc1nnc(C2CCCO2)s1)c1cccs1 (stereo unspecified)	inactive: 87.6%
CCC(NC(=O)Nc1ccc(O)cc1)(C(F)(F)F)C(F)(F)F	inactive: 96%
O=c1c(N=Nc2ccc(O)cc2)c(-c2ccccc2)[nH]n1-c1ccc([N+](=O)[O-])cc1	inactive: 86%
COc1ccccc1NCCC(=O)OCC(=O)NCc1ccco1	inactive: 108%
COc1ccc2c(c1OC)C(=O)OC2Nc1nc(-c2cc3cc([N+](=O)[O-])ccc3oc2=O)cs1 (stereo unspecified)	inactive: 104%
Cc1nc2c(=O)[nH]c(=S)[nH]c2[nH]c1=O	inactive: 110%
Cc1cc2c(N)cccc2nn1	inactive: 97.5%
Oc1cc2c(cc1O)[C@H]1c3ccc(O)c(O)c3OC[C@@]1(O)C2	inactive: 103%
CN(C(=O)COc1ncnc2sccc12)c1ccccc1	inactive: 107%
CC(=O)NN1C(=O)/C(=C/c2ccc(Br)o2)SC1=S	inactive: 91.9%
COc1ccc(C(=O)N/N=C/c2cccnc2)cc1	inactive: 91.2%
Cc1cc(C)nc(N/N=C/C2=C(N3CCOCC3)C(=C\c3ccc(Cl)cc3)/CC2)n1	inactive: 86.4%
Cc1ccc(NC(=O)C(C)NC(=O)OCc2ccccc2)cc1C (stereo unspecified)	inactive: 101%
CN(C)c1ccc(N2C(=O)CC(Nc3ccc(N4CCOCC4)cc3)C2=O)cc1 (stereo unspecified)	inactive: 102%

Compound	viability
Cc1ccc(C)n1Cc1ccc(C(=O)O)cc1	inactive: 98.5%
O=C(O)c1ccc2c(c1)[C@@H]1C=CC[C@@H]1[C@H](c1ccccn1)N2	inactive: 110%
CSc1nc(NCCCO)c2c3c(sc2n1)CN(C)CC3	inactive: 97.1%
Cc1nn(-c2ccccn2)c2c1C(=O)C(Br)CC2 (stereo unspecified)	inactive: 83.4%
CC1=C/C(=N\OS(=O)(=O)c2ccccc2)C=CC1=O	inactive: 102%
CCCC1=NN2C(=N)/C(=C\c3ccc(SCc4ccco4)o3)C(=O)N=C2S1	inactive: 85.6%
CCN(CC(=O)Nc1c(F)cccc1F)C(=O)c1cccc(-n2cccc2)c1	inactive: 107%
Cc1ccc(/C=C/C(=O)Nc2ccc([N+](=O)[O-])c(NC(=O)/C=C/c3ccc(C)o3)c2)o1	inactive: 102%
COc1cccc(NS(=O)(=O)c2ccc3c(c2)C2C=CCC2C(c2ccc(C(=O)O)cc2)N3)c1 (stereo unspecified)	inactive: 95.3%
O=C(Cn1cncn1)N/N=C/c1ccccc1Cl	inactive: 99.5%
CCN(CC)c1ccc(NC(=O)CCS(=O)(=O)c2ccc(Br)cc2)c(C)c1	inactive: 91.6%
Cc1nc(C)c(C(=O)OCC(=O)Nc2ccc(C)c(C)c2)s1	inactive: 91.1%
N#Cc1c(-c2ccco2)cc(-c2ccccc2)[nH]c1=O	inactive: 89.4%
Cc1sc(NC(=O)CSc2nnnn2C(C)C)c(C#N)c1C	inactive: 95.3%
CC(C)(C)C(=O)O/N=C(\N)c1c(Cl)cccc1Cl	inactive: 108%
COc1ccc(S(=O)(=O)N2CCN(C(=O)c3cc(C)on3)CC2)cc1	inactive: 93.9%
CC1CCCC(NC(=O)C2CCC(CNc3c(N4CCCC4)c(=O)c3=O)CC2)C1C (stereo unspecified)	inactive: 93.1%
O=C1CSC(c2cccnc2)N1Cc1cccnc1 (stereo unspecified)	inactive: 109%
Brc1ccc(-c2nnc(-c3cccc(Br)c3)o2)cc1	inactive: 104%
